The list shows only some results of the screen, not a fair sample: it gathers some chemical classes. Other doses and runs of a compound may be missing. T/C is the treated group as % of the vehicle group. Some entries give survivors of the animals treated and no T/C: the source holds a T/C of zero for them, seemingly a mark for toxic or unscored doses. Some survivor counts are full or nearly so, which does not show that the dose was tolerated: survival well below the control is almost never listed, so the zero probably covers shortened survival too. Counts of survivors are from the toxicity check (mostly the fifth day) where no day follows; animals may have died later. Schedules are NCI's codes, taken here to give the interval after Q, in days (D) or hours (H), and the number of doses after X. Some entries hold several experiments; their values stand side by side, smallest first. Where survival is the endpoint, this PubChem deposit counts one and a half times the control or more as active, and values a quarter to a half above the control carry no call in these data; other NCI protocols may use other cut-offs. Some T/C values are followed by the survivors on the day toxicity was checked, most often the fifth; without a count or a note in brackets, all were alive then. Some entries show no survivor count and are marked so; the dose need not have been tolerated.
System: BDF1 mice, B16 melanoma ip, median survival T/C
Experiment: NCI In Vivo Anticancer Drug Screen. Data for tumor model B16 Melanoma (intraperitoneal) in B6D2F1 (BDF1) mice
Conditions: T/C endpoint: median survival time, higher T/C = longer survival
Outline: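 Values are ratios of treated (T) to vehicle-control (C) measurements of survival or tumor size in tumor-bearing mice.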

[1] = dose: 12.5 mg/kg/injection, schedule: Q01DX009 (ip), vehicle: saline with Tween-80
[2] = dose: 25.0 mg/kg/injection, schedule: Q01DX009 (ip), vehicle: saline with Tween-80
[3] = dose: 2.0 mg/kg/injection, schedule: Q01DX009 (ip), vehicle: saline
[4] = dose: 2.5 mg/kg/injection, schedule: Q01DX009 (ip), vehicle: Klucel (hydroxypropylcellulose) (HPC)
[5] = dose: 5.0 mg/kg/injection, schedule: Q01DX009 (ip), vehicle: Klucel (hydroxypropylcellulose) (HPC)
[6] = dose: 10.0 mg/kg/injection, schedule: Q01DX009 (ip), vehicle: Klucel (hydroxypropylcellulose) (HPC)

## CCCCC(CC)CO[P+](=O)OCC(CC)CCCC (stereo not drawn)
[1]
  T/C: 104 % of control
dose: 12.5 mg/kg/injection, schedule: Q04DX003 (ip), vehicle: saline with Tween-80
  T/C: 97 % of control
[2]
  T/C: 88 % of control
dose: 25.0 mg/kg/injection, schedule: Q04DX003 (ip), vehicle: saline with Tween-80
  T/C: 96 % of control
dose: 50.0 mg/kg/injection, schedule: Q01DX009 (ip), vehicle: saline with Tween-80
  T/C: 93 % of control
dose: 50.0 mg/kg/injection, schedule: Q04DX003 (ip), vehicle: saline with Tween-80
  T/C: 101 % of control

## N/C(=N\[N+](=O)[O-])N(CCO[N+](=O)[O-])N=O
[1]
  T/C: 138 % of control [survivor count not shown]
[2]
  T/C: 164 % of control [survivor count not shown]

## Nc1ccc(N(CCCl)CCCl)cc1
dose: 0.13 mg/kg/injection, schedule: Q01DX009 (ip), vehicle: Klucel (hydroxypropylcellulose) (HPC)
  T/C: 104 % of control
dose: 0.25 mg/kg/injection, schedule: Q01DX009 (ip), vehicle: Klucel (hydroxypropylcellulose) (HPC)
  T/C: 93 % of control
dose: 0.25 mg/kg/injection, schedule: Q01DX009 (ip), vehicle: saline
  T/C: 100 and 114 % of control
dose: 0.5 mg/kg/injection, schedule: Q01DX009 (ip), vehicle: Klucel (hydroxypropylcellulose) (HPC)
  T/C: 106 % of control
dose: 0.5 mg/kg/injection, schedule: Q01DX009 (ip), vehicle: saline
  T/C: 125 and 127 % of control [8 of 10 alive]
dose: 1.0 mg/kg/injection, schedule: Q01DX009 (ip), vehicle: Klucel (hydroxypropylcellulose) (HPC)
  T/C: 124 % of control
dose: 1.0 mg/kg/injection, schedule: Q01DX009 (ip), vehicle: saline
  T/C: 139 and 145 % of control
dose: 2.0 mg/kg/injection, schedule: Q01DX009 (ip), vehicle: Klucel (hydroxypropylcellulose) (HPC)
  T/C: 120 % of control
[3]
  T/C: 175 % of control
  survivor count: 10 of 10
dose: 4.0 mg/kg/injection, schedule: Q01DX009 (ip), vehicle: Klucel (hydroxypropylcellulose) (HPC)
  survivor count: 7 of 8
dose: 4.0 mg/kg/injection, schedule: Q01DX009 (ip), vehicle: saline
  survivor count: 10 of 10
dose: 8.0 mg/kg/injection, schedule: Q01DX009 (ip), vehicle: saline
  survivor count: 4 of 10 and 10 of 10

## C1C[N-]1.C1C[N-]1.[Cl][Pt+2][Cl]
dose: 0.62 mg/kg/injection, schedule: Q01DX009 (ip), vehicle: saline
  T/C: 117 % of control
dose: 1.25 mg/kg/injection, schedule: Q01DX009 (ip), vehicle: saline
  T/C: 115 % of control
[4]
  T/C: 100 and 110 % of control
dose: 2.5 mg/kg/injection, schedule: Q01DX009 (ip), vehicle: saline
  T/C: 112 % of control
[5]
  T/C: 97 and 110 % of control
dose: 5.0 mg/kg/injection, schedule: Q01DX009 (ip), vehicle: saline
  T/C: 133 % of control
[6]
  T/C: 105 and 115 % of control [9 of 10 alive]
dose: 10.0 mg/kg/injection, schedule: Q01DX009 (ip), vehicle: saline
  T/C: 161 % of control
dose: 10.0 mg/kg/injection, schedule: Q04DX003 (ip), vehicle: Klucel (hydroxypropylcellulose) (HPC)
  T/C: 94 % of control [8 of 10 alive]
dose: 20.0 mg/kg/injection, schedule: Q01DX009 (ip), vehicle: Klucel (hydroxypropylcellulose) (HPC)
  survivor count: 10 of 10
dose: 20.0 mg/kg/injection, schedule: Q01DX009 (ip), vehicle: saline
  survivor count: 10 of 10
dose: 20.0 mg/kg/injection, schedule: Q04DX003 (ip), vehicle: Klucel (hydroxypropylcellulose) (HPC)
  T/C: 97 % of control [9 of 10 alive]
dose: 40.0 mg/kg/injection, schedule: Q01DX009 (ip), vehicle: Klucel (hydroxypropylcellulose) (HPC)
  survivor count: 9 of 10 and 10 of 10
dose: 40.0 mg/kg/injection, schedule: Q01DX009 (ip), vehicle: saline
  survivor count: 9 of 10
dose: 40.0 mg/kg/injection, schedule: Q04DX003 (ip), vehicle: Klucel (hydroxypropylcellulose) (HPC)
  T/C: 105 % of control [8 of 10 alive]
dose: 80.0 mg/kg/injection, schedule: Q01DX009 (ip), vehicle: Klucel (hydroxypropylcellulose) (HPC)
  survivor count: 0 of 10
dose: 80.0 mg/kg/injection, schedule: Q01DX009 (ip), vehicle: saline
  survivor count: 1 of 10
dose: 80.0 mg/kg/injection, schedule: Q04DX003 (ip), vehicle: Klucel (hydroxypropylcellulose) (HPC)
  T/C: 123 % of control
dose: 160.0 mg/kg/injection, schedule: Q04DX003 (ip), vehicle: Klucel (hydroxypropylcellulose) (HPC)
  survivor count: 5 of 10

## NCCF
dose: 1.25 mg/kg/injection, schedule: Q01DX009 (ip), vehicle: Klucel (hydroxypropylcellulose) (HPC)
  T/C: 100 % of control [5 of 6 alive]
[4]
  T/C: 106 % of control
[5]
  survivor count: 0 of 6
[6]
  survivor count: 0 of 6

## C[N+](C)(C)Cc1ccccc1.F[P-](F)(F)(F)(F)F
dose: 5.0 mg/kg/injection, schedule: Q01DX009 (ip), vehicle: saline with Tween-80
  T/C: 110 % of control
dose: 10.0 mg/kg/injection, schedule: Q01DX009 (ip), vehicle: saline with Tween-80
  T/C: 100 % of control
dose: 20.0 mg/kg/injection, schedule: Q01DX009 (ip), vehicle: saline with Tween-80
  T/C: 92 % of control

## CCCCc1ccc(N(CCCl)CCCl)cc1
dose: 6.25 mg/kg/injection, schedule: Q01DX009 (ip), vehicle: Klucel (hydroxypropylcellulose) (HPC)
  T/C: 93 % of control
dose: 12.5 mg/kg/injection, schedule: Q01DX009 (ip), vehicle: Klucel (hydroxypropylcellulose) (HPC)
  T/C: 98 % of control
dose: 25.0 mg/kg/injection, schedule: Q01DX009 (ip), vehicle: Klucel (hydroxypropylcellulose) (HPC)
  T/C: 101 % of control [7 of 8 alive]
dose: 50.0 mg/kg/injection, schedule: Q01DX009 (ip), vehicle: Klucel (hydroxypropylcellulose) (HPC)
  T/C: 102 % of control [7 of 8 alive]
dose: 100.0 mg/kg/injection, schedule: Q01DX009 (ip), vehicle: Klucel (hydroxypropylcellulose) (HPC)
  T/C: 125 % of control
dose: 200.0 mg/kg/injection, schedule: Q01DX009 (ip), vehicle: Klucel (hydroxypropylcellulose) (HPC)
  survivor count: 7 of 8

Source: PubChem BioAssay AID192 (DTP/NCI, 2004)
